For the experiment, the target named is GFP-tagged Smc3 (Smc3-GFP) (Drosophila). The experiment can be described thus: co-IP; 1 mg total protein extract of S2 cells expressing Smc3-GFP (control RNAi or san RNAi; actively dividing or arrested in metaphase with 25 μM colchicine for 12 hours) in NB buffer; GFP-Trap magnetic beads, 1 hr at 4 °C; western blot; cells with an empty plasmid as negative control.

The record followed here is paper PMC5171793.

These are yes or no findings as the source states them, for the method shown. Binding seen in cells or lysates may run through a third protein.

B1: Dalmatian/Sororin (protein, UniProt Q9VH89 1-857)
chain: MVRTRPVPCVPSPDVNTATRRNPGRPKKQSIGADLSTTISKPGRPKKLSIGADLTTIRKPGRPKKLGADLTTIIRKPGRPTKLSNKQSLTALNEPECRIRKCVVKIRRIKVKNGVVSEISRNDAPDVDASTFEPARNSTMYIPSKVQKSTQPQNIKENVAGPETSPCQQRIRSKSPSGPAAEISPKKPPRFFHRDQPLTRTRSSVTRNVFDFLSQSQIEDDSDREDPAADIIQRLVKDGKACVMVRSRKIGKPRAKRTAKKVRPVGNRRKVSTKDNEPEPVKVVPKSIEPRLQKPSRSLSTIFEPEEDYSNDSEHGYVQPIEVPVQVHVEPSTSKQAHEGAYSNLARSVMLNQTQAQNPLPSTDRRRELINMARQLVSTPLNRRAPPVTDVSATTTALSPIAHQSPNAVRTAGGKSPWRVSDDSPLPNTFMFGFNNSQMPSYSSDHVQRRHVYVPDSPVEHAENIPHEESICPPLHEQNHDSNANDSNEENRPPPTISKSMSINDQESEENAENFVHLPNPRRTLQKRTPFKDINILEVVTLPSWKKNVTATVSKEITPTRVAPRPMATSSPAQRSQTRSNLFGFDDDFACEDIPRKSTTPSKGIAPTSMSLNREVTPALANRNQTEVNTFGCNEILPCENIPKEKETNTEERTSSSQNLFGFDEFITESQDSPANFTGLSQNVNLHDKLHRLAELRPRDGELPQVSYTSIRSDCLGESHSKQTDIRYMLCSTMIAPPRPAKRKPAAPTARESMGLFRVDQDEPEQSFADKQPRRTYVKERPQRKRKKRVQILYIESESEDEDEQDSHDKSLDSPEKKRHHVKRPRRDIEHEAKLEQFVTSFNKQCEEVEKFPVIIE
In the case of B1, the binding entry is on record as “no binding”.
